{"source": "the supplement of paper PMC5355238", "note": "Where a name gives a salt, the structure may show the parent alone. Some of the results follow. Most values lie at the level of the controls, where differences are scatter.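 Reh, a human leukemia cell line, is read out by flow cytometry as the median γH2AX antibody signal in S-phase cells; the score counts standard deviations from the median difference of each paired plate set. Scores above 2.5 were candidate hits; scores below -2 mark compounds lowering MK1775-induced damage.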", "data": [{"system": "Reh", "test": "Z' of S-phase gammaH2AX difference (drug + MK1775 minus drug alone) (Z-score); higher = stronger synergistic S-phase DNA damage with MK1775", "details": "MK1775 concentration 400 nM; first compound 10 µM; 4 h", "values": [{"smiles": "Cc1ccc(C(=O)N(CCCN)[C@@H](c2oc3cc(Cl)ccc3c(=O)c2Cc2ccccc2)C(C)C)cc1", "note": "+ C=CCn1c(=O)c2cnc(Nc3ccc(N4CCN(C)CC4)cc3)nc2n1-c1cccc(C(C)(C)O)n1 [MK1775]", "Z' of S-phase gammaH2AX difference (Z-score)": "inactive: -0.375"}, {"smiles": "Nc1nc(N)c2nc(-c3ccccc3)c(N)nc2n1", "note": "[Triamterene] + C=CCn1c(=O)c2cnc(Nc3ccc(N4CCN(C)CC4)cc3)nc2n1-c1cccc(C(C)(C)O)n1 [MK1775]", "Z' of S-phase gammaH2AX difference (Z-score)": "inactive: -1.73"}, {"smiles": "C=C1C(=O)O[C@H]2[C@H]1CC/C(C)=C/CC[C@@]1(C)O[C@@H]21", "note": "[Parthenolide] + C=CCn1c(=O)c2cnc(Nc3ccc(N4CCN(C)CC4)cc3)nc2n1-c1cccc(C(C)(C)O)n1 [MK1775]", "Z' of S-phase gammaH2AX difference (Z-score)": "inactive: -0.378"}, {"smiles": "Cn1nnc2c(C(N)=O)ncn2c1=O", "note": "[Temozolomide] + C=CCn1c(=O)c2cnc(Nc3ccc(N4CCN(C)CC4)cc3)nc2n1-c1cccc(C(C)(C)O)n1 [MK1775]", "Z' of S-phase gammaH2AX difference (Z-score)": "inactive: 0.431"}, {"smiles": "CN1[C@@H]2CC[C@H]1C[C@@H](OC(=O)C(O)c1ccccc1)C2", "note": "(mixture of isomers) [DL-Homatropine hydrobromide] + C=CCn1c(=O)c2cnc(Nc3ccc(N4CCN(C)CC4)cc3)nc2n1-c1cccc(C(C)(C)O)n1 [MK1775]", "Z' of S-phase gammaH2AX difference (Z-score)": "inactive: 0.0753"}, {"smiles": "C[C@]12CC[C@H](O)CC1=CC[C@@H]1[C@@H]2CC[C@]2(C)C(c3cccnc3)=CC[C@@H]12", "note": "[Abiraterone (CB-7598)] + C=CCn1c(=O)c2cnc(Nc3ccc(N4CCN(C)CC4)cc3)nc2n1-c1cccc(C(C)(C)O)n1 [MK1775]", "Z' of S-phase gammaH2AX difference (Z-score)": "inactive: 0.57"}, {"smiles": "CC(C)NCC(O)COc1cccc2[nH]ccc12", "note": "(stereo unspecified) [Pindolol] + C=CCn1c(=O)c2cnc(Nc3ccc(N4CCN(C)CC4)cc3)nc2n1-c1cccc(C(C)(C)O)n1 [MK1775]", "Z' of S-phase gammaH2AX difference (Z-score)": "inactive: -0.349"}, {"smiles": "CC(CN(C)C)CN1c2ccccc2CCc2ccccc21", "note": "(stereo unspecified) [Trimipramine maleate] + C=CCn1c(=O)c2cnc(Nc3ccc(N4CCN(C)CC4)cc3)nc2n1-c1cccc(C(C)(C)O)n1 [MK1775]", "Z' of S-phase gammaH2AX difference (Z-score)": "inactive: 0.587"}, {"smiles": "COC(=O)[C@H]1[C@H]2C[C@H]3c4[nH]c5ccccc5c4CCN3C[C@H]2CC[C@@H]1O", "note": "[Rauwolscine hydrochloride] + C=CCn1c(=O)c2cnc(Nc3ccc(N4CCN(C)CC4)cc3)nc2n1-c1cccc(C(C)(C)O)n1 [MK1775]", "Z' of S-phase gammaH2AX difference (Z-score)": "inactive: -0.811"}, {"smiles": "COC(=O)C(C)(N)Cc1ccc(O)cc1", "note": "(racemic) [alpha-Methyl-DL-tyrosine methyl ester hydrochloride] + C=CCn1c(=O)c2cnc(Nc3ccc(N4CCN(C)CC4)cc3)nc2n1-c1cccc(C(C)(C)O)n1 [MK1775]", "Z' of S-phase gammaH2AX difference (Z-score)": "inactive: -0.146"}, {"smiles": "CC(C)C(=O)c1c(C(C)C)nn2ccccc12", "note": "[Ibudilast] + C=CCn1c(=O)c2cnc(Nc3ccc(N4CCN(C)CC4)cc3)nc2n1-c1cccc(C(C)(C)O)n1 [MK1775]", "Z' of S-phase gammaH2AX difference (Z-score)": "inactive: -0.0899"}, {"smiles": "Nc1ncnc2c1ncn2[C@@H]1O[C@@H]2COP(=O)(O)O[C@H]2[C@H]1O", "note": "[Adenosine 3',5'-cyclic monophosphate] + C=CCn1c(=O)c2cnc(Nc3ccc(N4CCN(C)CC4)cc3)nc2n1-c1cccc(C(C)(C)O)n1 [MK1775]", "Z' of S-phase gammaH2AX difference (Z-score)": "inactive: -0.424"}, {"smiles": "NCCc1ccc(O)c(O)c1", "note": "[Dopamine hydrochloride] + C=CCn1c(=O)c2cnc(Nc3ccc(N4CCN(C)CC4)cc3)nc2n1-c1cccc(C(C)(C)O)n1 [MK1775]", "Z' of S-phase gammaH2AX difference (Z-score)": "inactive: -0.721"}, {"smiles": "O=C(/C=C/c1cccnc1)NCCCCC1CCN(C(=O)c2ccccc2)CC1", "note": "+ C=CCn1c(=O)c2cnc(Nc3ccc(N4CCN(C)CC4)cc3)nc2n1-c1cccc(C(C)(C)O)n1 [MK1775]", "Z' of S-phase gammaH2AX difference (Z-score)": "inactive: 0.641"}, {"smiles": "C[C@H](Cc1ccc(O)c(O)c1)[C@@H](C)Cc1ccc(O)c(O)c1", "note": "+ C=CCn1c(=O)c2cnc(Nc3ccc(N4CCN(C)CC4)cc3)nc2n1-c1cccc(C(C)(C)O)n1 [MK1775]", "Z' of S-phase gammaH2AX difference (Z-score)": "inactive: -0.733"}, {"smiles": "NC(N)=NC(N)=Nc1ccccc1", "note": "[1-Phenylbiguanide] + C=CCn1c(=O)c2cnc(Nc3ccc(N4CCN(C)CC4)cc3)nc2n1-c1cccc(C(C)(C)O)n1 [MK1775]", "Z' of S-phase gammaH2AX difference (Z-score)": "inactive: -0.888"}, {"smiles": "NC(=O)c1ccccc1", "note": "[Benzamide] + C=CCn1c(=O)c2cnc(Nc3ccc(N4CCN(C)CC4)cc3)nc2n1-c1cccc(C(C)(C)O)n1 [MK1775]", "Z' of S-phase gammaH2AX difference (Z-score)": "inactive: -0.184"}, {"smiles": "C[C@H](CS)C(=O)N1CCC[C@H]1C(=O)O", "note": "[Captopril] + C=CCn1c(=O)c2cnc(Nc3ccc(N4CCN(C)CC4)cc3)nc2n1-c1cccc(C(C)(C)O)n1 [MK1775]", "Z' of S-phase gammaH2AX difference (Z-score)": "inactive: -0.15"}, {"smiles": "Cn1cnc2c(F)c(Nc3ccc(Br)cc3Cl)c(C(=O)NOCCO)cc21", "note": "[AZD6244 (Selumetinib)] + C=CCn1c(=O)c2cnc(Nc3ccc(N4CCN(C)CC4)cc3)nc2n1-c1cccc(C(C)(C)O)n1 [MK1775]", "Z' of S-phase gammaH2AX difference (Z-score)": "inactive: 0.196"}, {"smiles": "CCCN(CC1CC1)c1nc(C)nc(Nc2c(Cl)cc(Cl)cc2Cl)c1Cl", "note": "+ C=CCn1c(=O)c2cnc(Nc3ccc(N4CCN(C)CC4)cc3)nc2n1-c1cccc(C(C)(C)O)n1 [MK1775]", "Z' of S-phase gammaH2AX difference (Z-score)": "inactive: 1.14"}, {"smiles": "Nc1ncnc2c1ncn2C1CCCC1", "note": "[9-cyclopentyladenine] + C=CCn1c(=O)c2cnc(Nc3ccc(N4CCN(C)CC4)cc3)nc2n1-c1cccc(C(C)(C)O)n1 [MK1775]", "Z' of S-phase gammaH2AX difference (Z-score)": "inactive: -0.0301"}, {"smiles": "O=C1NC(c2cccc([N+](=O)[O-])c2)=CCN1c1ccccc1O", "note": "[Icilin] + C=CCn1c(=O)c2cnc(Nc3ccc(N4CCN(C)CC4)cc3)nc2n1-c1cccc(C(C)(C)O)n1 [MK1775]", "Z' of S-phase gammaH2AX difference (Z-score)": "inactive: 1.01"}, {"smiles": "CCCCCC(O)CCCC(=O)O", "note": "(stereo unspecified) [5-hydroxydecanoic acid sodium] + C=CCn1c(=O)c2cnc(Nc3ccc(N4CCN(C)CC4)cc3)nc2n1-c1cccc(C(C)(C)O)n1 [MK1775]", "Z' of S-phase gammaH2AX difference (Z-score)": "inactive: 1.03"}, {"smiles": "N#CC1(c2ccc(NC(=O)c3cccnc3NCc3ccncc3)cc2)CCCC1", "note": "[Apatinib (YN968D1)] + C=CCn1c(=O)c2cnc(Nc3ccc(N4CCN(C)CC4)cc3)nc2n1-c1cccc(C(C)(C)O)n1 [MK1775]", "Z' of S-phase gammaH2AX difference (Z-score)": "inactive: -0.112"}, {"smiles": "CCCOc1ccccc1-c1nc2[nH]nnc2c(=O)[nH]1", "note": "[Zaprinast] + C=CCn1c(=O)c2cnc(Nc3ccc(N4CCN(C)CC4)cc3)nc2n1-c1cccc(C(C)(C)O)n1 [MK1775]", "Z' of S-phase gammaH2AX difference (Z-score)": "inactive: 0.818"}, {"smiles": "COc1ccc(Cl)cc1C(=O)NCCc1ccc(S(=O)(=O)NC(=O)NC2CCCCC2)cc1", "note": "[Glibenclamide] + C=CCn1c(=O)c2cnc(Nc3ccc(N4CCN(C)CC4)cc3)nc2n1-c1cccc(C(C)(C)O)n1 [MK1775]", "Z' of S-phase gammaH2AX difference (Z-score)": "inactive: 1.94"}, {"smiles": "CC#C[C@]1(O)CC[C@H]2[C@@H]3CCC4=CC(=O)CCC4=C3[C@@H](c3ccc(N(C)C)cc3)C[C@@]21C", "note": "[Mifepristone] + C=CCn1c(=O)c2cnc(Nc3ccc(N4CCN(C)CC4)cc3)nc2n1-c1cccc(C(C)(C)O)n1 [MK1775]", "Z' of S-phase gammaH2AX difference (Z-score)": "inactive: -0.0388"}, {"smiles": "CC#C[C@]1(O)CC[C@H]2[C@@H]3CCC4=CC(=O)CCC4=C3[C@@H](c3ccc(N(C)C)cc3)C[C@@]21C", "note": "[Mifepristone (Mifeprex)] + C=CCn1c(=O)c2cnc(Nc3ccc(N4CCN(C)CC4)cc3)nc2n1-c1cccc(C(C)(C)O)n1 [MK1775]", "Z' of S-phase gammaH2AX difference (Z-score)": "inactive: -0.313"}, {"smiles": "CC[C@@H]1C(=O)N(C)c2cnc(Nc3ccc(C(=O)N[C@H]4CC[C@H](N5CCN(CC6CC6)CC5)CC4)cc3OC)nc2N1C(C)C", "note": "[BI6727 (Volasertib)] + C=CCn1c(=O)c2cnc(Nc3ccc(N4CCN(C)CC4)cc3)nc2n1-c1cccc(C(C)(C)O)n1 [MK1775]", "Z' of S-phase gammaH2AX difference (Z-score)": "inactive: -0.499"}, {"smiles": "Cc1ccc(OCC(O)C(C)NC(C)C)c2c1CCC2", "note": "(stereo unspecified) [ICI 118,551 hydrochloride] + C=CCn1c(=O)c2cnc(Nc3ccc(N4CCN(C)CC4)cc3)nc2n1-c1cccc(C(C)(C)O)n1 [MK1775]", "Z' of S-phase gammaH2AX difference (Z-score)": "inactive: -0.532"}, {"smiles": "O=C(O)C1=CC(=C(c2ccc(O)c(C(=O)O)c2)c2ccc(O)c(C(=O)O)c2)C=CC1=O", "note": "[Aurintricarboxylic acid] + C=CCn1c(=O)c2cnc(Nc3ccc(N4CCN(C)CC4)cc3)nc2n1-c1cccc(C(C)(C)O)n1 [MK1775]", "Z' of S-phase gammaH2AX difference (Z-score)": "inactive: -0.287"}, {"smiles": "NC(C(=O)O)C(O)C(=O)O", "note": "(racemic) [DL-threo-beta-hydroxyaspartic acid] + C=CCn1c(=O)c2cnc(Nc3ccc(N4CCN(C)CC4)cc3)nc2n1-c1cccc(C(C)(C)O)n1 [MK1775]", "Z' of S-phase gammaH2AX difference (Z-score)": "inactive: 0.0899"}, {"smiles": "O=c1ccn([C@@H]2O[C@H](COP(=O)(O)OP(=O)(O)O)[C@@H](O)[C@H]2O)c(=O)[nH]1", "note": "[Uridine 5'-diphosphate sodium] + C=CCn1c(=O)c2cnc(Nc3ccc(N4CCN(C)CC4)cc3)nc2n1-c1cccc(C(C)(C)O)n1 [MK1775]", "Z' of S-phase gammaH2AX difference (Z-score)": "inactive: 0.505"}, {"smiles": "CC(C(O)c1ccc(O)cc1)N1CCC(Cc2ccccc2)CC1", "note": "(stereo unspecified) [Ifenprodil tartrate] + C=CCn1c(=O)c2cnc(Nc3ccc(N4CCN(C)CC4)cc3)nc2n1-c1cccc(C(C)(C)O)n1 [MK1775]", "Z' of S-phase gammaH2AX difference (Z-score)": "inactive: 0.673"}, {"smiles": "Cn1cc(C(F)(F)F)nc1-c1ccc(OCC(O)CNCCOc2ccc(O)c(C(N)=O)c2)cc1", "note": "(stereo unspecified) + C=CCn1c(=O)c2cnc(Nc3ccc(N4CCN(C)CC4)cc3)nc2n1-c1cccc(C(C)(C)O)n1 [MK1775]", "Z' of S-phase gammaH2AX difference (Z-score)": "inactive: -0.11"}, {"smiles": "C=C/C(C)=C/[C@@]1(C)SC(=O)C(C)=C1O", "note": "[Thiolactomycin] + C=CCn1c(=O)c2cnc(Nc3ccc(N4CCN(C)CC4)cc3)nc2n1-c1cccc(C(C)(C)O)n1 [MK1775]", "Z' of S-phase gammaH2AX difference (Z-score)": "inactive: -0.378"}]}]}
